Data from paper PMC2904801, “A Metazoan/Plant-like Capping Enzyme and Cap Modified Nucleotides in the Unicellular Eukaryote Trichomonas vaginalis” (PLoS Pathogens, 2010).
Results are given in words; binding and its absence hold for the method and conditions named.

Biological target: Trichomonas vaginalis capping enzyme (TvCE), full-length recombinant (Trichomonas vaginalis) (UniProt A2DUZ5)
Assay: SEC; pre-calibrated Superdex 200 column; 50 mM Tris pH 6.0, 200 mM NaCl, 5 mM DTT, 10% glycerol; 0.2 ml/min; fractions tested for TPase and GTase activity and by western blot with HisProbe-HRP; both purified

B1: Trichomonas vaginalis capping enzyme (TvCE), full-length recombinant (enzyme, UniProt A2DUZ5 1-561)
chain: MTDNKFTPPKRWINCPKFGDRVPNTHFIPLKAPLADKYSDLYEKHRFTFSIFQEEQRKLGREIEVVISLANTDVFYSVNDLNGVKWRHIPCRGHETAPTSDEYAKFLATIEEFQQLPDNTLIAVHCTHGFNRTGYMIVRYLVDKLHYTLLQALQLFASVRSPGIYKVDYIQVLCQIYQVDETQTLSELFHVPPSEIKNIKKPKWEFPDPSTLPHFRVEKPIVNETQTLENVGTHFRDSAITSEISKICSVNYGRFPGSNPISITSENKMQLTQKRYLATYKSDGVRYFLYAFHKNTYLIDRKNSIRKVNVTLVTRKGQPMENTLLDGELVVSKGDDKPHFLIFDVLCFEGLNLTNHTWDLRMDYSKKGVVPFRKMYFNRNPGAFTREDFHIEEKLQWELQNIRDLEEYIMTKVTHDTDGAIFTPLDLEFVPGRCDQILKMKPIELNSTDFKIQLHNGIYYMSVTNYVKNDEKFQENIPISILDFADGLGVKDGAICEAVLDLKKEDIENDPINCWFKAGWRPLRIREDKDTPNVYTTFAGVFKSIEDNINFDTIAKMFPKK
B1 was tested, and the binding was “no binding”.
